The data set in a line: Organic TFT device properties. The conditions noted are these: for Mobility / ON/OFF ratio: Table 1, organic TFT device with the material as semiconductor layer; for field-effect mobility of organic TFT / on/off ratio of organic TFT: compound as organic semiconductor layer, FIG. 8 to 11.

Take `CCCCCCCCCCCCCCCCCCc1ccc2c(c1)-c1ccc([Si](OC)(OC)OC)cc1C2` [Example 16-3, 2-trimethoxysilyl-6-octadecylfluorene]: the Mobility is 1.2 × 10^−2 and the ON/OFF ratio is listed as 4.

With `CCCCCCCCCCCCCCCCCCc1ccc2cc3c(ccc4cc5cc([Si](OCC)(OCC)OCC)ccc5cc43)cc2c1` [Example 16-5], the Mobility is on record as 0.15 and the ON/OFF ratio turned out to be 6.

Consider `CCCCCCCCc1cc2[nH]c3cc([Si](OC)(OC)OC)ccc3c2cc1CCCCCCCC` [Example 16-1, 2-trimethoxysilyl-6,7-dioctylcarbazole], for which the Mobility is 2.2 × 10^−2 and the ON/OFF ratio was found to be 5.

“Si(OC2H5)3[Si(OC2H5)3]P7[C15]C15 [Example 15-4]”: the “field-effect mobility of organic TFT” value was 2.3×10^−1 cm^2/Vs and the “on/off ratio of organic TFT” value is listed as “about 6 digit”.

“Si(OCH3)3[Si(OCH3)3]P9[C21]C21 [Example 15-5]”: the “field-effect mobility of organic TFT” value is on record as 2.7×10^−1 cm^2/Vs and the “on/off ratio of organic TFT” value is on record as “about 6 digit”.

On to `CCCCCCCCCCCCCCCCCCc1cccc2c3c(ccc12)-c1cc([Si](OC)(OC)OC)cc2cccc-3c12` [Example 16-8, 5-trimethoxysilyl-9-octadecylbenzofluoranthene], for which the Mobility is 4.0 × 10^−2 and the ON/OFF ratio was determined as 5.

Take `CCCCCCCCCCCCCCCCCCc1ccc2c(c1)sc1cc(-c3ccc4c(c3)sc3cc([Si](OC)(OC)OC)ccc34)ccc12` [Example 16-4]: the Mobility is 7.5 × 10^−2 and the ON/OFF ratio was determined as 5.

The values above are taken from US20080207864A1, “Organosilanes, Process For Production of the Same, and Use Thereof” (priority 2004, published 2008).
